Experimental data: the supplement of paper PMC12819154, “High-throughput peptide-centric local stability assay extends protein–ligand identification to membrane proteins, tissues and bacteria” (Nature Structural & Molecular Biology, 2025)
The list shows a part of the results. Most entries show no effect beyond the scatter of the controls.

Protein sequences, listed by entry. Tags and fused reporters are not part of them. Lines headed by an entry give the natural chain unless they say otherwise; changes in a name come on top.
UniProt Q7TMF3, whole entry: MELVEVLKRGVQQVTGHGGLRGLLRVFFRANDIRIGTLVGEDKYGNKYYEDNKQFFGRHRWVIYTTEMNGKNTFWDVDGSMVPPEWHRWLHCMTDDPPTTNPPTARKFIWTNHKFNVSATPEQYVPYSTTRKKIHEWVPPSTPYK
UniProt Q78JW9: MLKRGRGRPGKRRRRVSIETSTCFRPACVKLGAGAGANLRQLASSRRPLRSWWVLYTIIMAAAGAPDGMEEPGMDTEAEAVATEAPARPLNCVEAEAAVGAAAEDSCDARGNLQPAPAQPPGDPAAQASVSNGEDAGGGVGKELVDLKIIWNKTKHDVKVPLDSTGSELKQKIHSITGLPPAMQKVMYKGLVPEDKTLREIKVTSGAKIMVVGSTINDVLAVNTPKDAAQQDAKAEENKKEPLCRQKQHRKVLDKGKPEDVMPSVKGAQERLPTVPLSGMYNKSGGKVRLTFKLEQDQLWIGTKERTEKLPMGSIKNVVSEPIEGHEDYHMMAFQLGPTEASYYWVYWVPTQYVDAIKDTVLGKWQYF
UniProt Q80U38: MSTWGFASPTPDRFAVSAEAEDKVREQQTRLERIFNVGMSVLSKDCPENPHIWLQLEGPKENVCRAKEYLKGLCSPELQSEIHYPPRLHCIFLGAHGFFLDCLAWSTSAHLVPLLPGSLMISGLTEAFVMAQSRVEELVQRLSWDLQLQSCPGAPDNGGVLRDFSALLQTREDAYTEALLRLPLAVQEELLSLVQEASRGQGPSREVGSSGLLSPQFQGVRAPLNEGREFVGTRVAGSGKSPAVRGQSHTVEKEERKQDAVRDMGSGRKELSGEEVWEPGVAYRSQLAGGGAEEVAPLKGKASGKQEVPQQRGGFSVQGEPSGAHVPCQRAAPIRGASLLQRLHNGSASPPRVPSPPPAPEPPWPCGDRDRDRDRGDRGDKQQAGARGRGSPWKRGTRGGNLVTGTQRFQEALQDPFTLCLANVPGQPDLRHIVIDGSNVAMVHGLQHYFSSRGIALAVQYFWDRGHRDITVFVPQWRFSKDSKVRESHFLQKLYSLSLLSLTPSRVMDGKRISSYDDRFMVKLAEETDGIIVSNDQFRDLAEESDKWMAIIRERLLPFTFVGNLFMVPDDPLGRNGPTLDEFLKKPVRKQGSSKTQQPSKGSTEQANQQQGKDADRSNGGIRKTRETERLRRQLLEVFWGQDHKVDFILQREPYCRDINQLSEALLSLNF
UniProt Q7TPZ8: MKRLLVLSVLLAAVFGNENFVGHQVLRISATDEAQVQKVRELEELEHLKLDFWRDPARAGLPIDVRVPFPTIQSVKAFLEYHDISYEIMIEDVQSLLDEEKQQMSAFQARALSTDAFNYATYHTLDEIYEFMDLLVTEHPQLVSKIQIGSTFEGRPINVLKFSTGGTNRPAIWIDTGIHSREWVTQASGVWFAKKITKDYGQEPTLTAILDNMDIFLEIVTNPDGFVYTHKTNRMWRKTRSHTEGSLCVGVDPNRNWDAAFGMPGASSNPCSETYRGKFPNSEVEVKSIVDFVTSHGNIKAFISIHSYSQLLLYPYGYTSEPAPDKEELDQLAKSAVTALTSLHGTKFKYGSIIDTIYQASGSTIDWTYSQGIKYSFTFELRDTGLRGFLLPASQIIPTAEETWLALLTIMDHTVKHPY
UniProt Q80TN4: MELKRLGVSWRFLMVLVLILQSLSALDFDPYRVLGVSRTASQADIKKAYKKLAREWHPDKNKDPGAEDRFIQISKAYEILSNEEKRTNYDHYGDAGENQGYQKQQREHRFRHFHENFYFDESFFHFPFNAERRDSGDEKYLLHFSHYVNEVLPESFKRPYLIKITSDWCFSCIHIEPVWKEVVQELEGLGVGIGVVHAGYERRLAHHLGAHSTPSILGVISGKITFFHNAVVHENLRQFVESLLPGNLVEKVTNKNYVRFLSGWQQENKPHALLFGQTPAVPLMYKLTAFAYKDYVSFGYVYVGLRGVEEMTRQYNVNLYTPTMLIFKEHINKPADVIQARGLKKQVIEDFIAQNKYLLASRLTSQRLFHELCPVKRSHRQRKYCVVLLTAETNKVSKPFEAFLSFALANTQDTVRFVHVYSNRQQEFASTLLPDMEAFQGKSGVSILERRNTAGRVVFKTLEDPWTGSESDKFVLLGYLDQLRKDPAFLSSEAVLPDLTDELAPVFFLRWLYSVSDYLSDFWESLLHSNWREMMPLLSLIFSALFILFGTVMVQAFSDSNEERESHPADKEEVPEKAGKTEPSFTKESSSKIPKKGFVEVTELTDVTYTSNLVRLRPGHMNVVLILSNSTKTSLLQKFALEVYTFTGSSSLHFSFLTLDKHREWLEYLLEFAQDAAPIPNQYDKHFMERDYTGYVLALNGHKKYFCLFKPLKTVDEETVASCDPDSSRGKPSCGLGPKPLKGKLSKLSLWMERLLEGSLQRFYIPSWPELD
UniProt Q7TNB8: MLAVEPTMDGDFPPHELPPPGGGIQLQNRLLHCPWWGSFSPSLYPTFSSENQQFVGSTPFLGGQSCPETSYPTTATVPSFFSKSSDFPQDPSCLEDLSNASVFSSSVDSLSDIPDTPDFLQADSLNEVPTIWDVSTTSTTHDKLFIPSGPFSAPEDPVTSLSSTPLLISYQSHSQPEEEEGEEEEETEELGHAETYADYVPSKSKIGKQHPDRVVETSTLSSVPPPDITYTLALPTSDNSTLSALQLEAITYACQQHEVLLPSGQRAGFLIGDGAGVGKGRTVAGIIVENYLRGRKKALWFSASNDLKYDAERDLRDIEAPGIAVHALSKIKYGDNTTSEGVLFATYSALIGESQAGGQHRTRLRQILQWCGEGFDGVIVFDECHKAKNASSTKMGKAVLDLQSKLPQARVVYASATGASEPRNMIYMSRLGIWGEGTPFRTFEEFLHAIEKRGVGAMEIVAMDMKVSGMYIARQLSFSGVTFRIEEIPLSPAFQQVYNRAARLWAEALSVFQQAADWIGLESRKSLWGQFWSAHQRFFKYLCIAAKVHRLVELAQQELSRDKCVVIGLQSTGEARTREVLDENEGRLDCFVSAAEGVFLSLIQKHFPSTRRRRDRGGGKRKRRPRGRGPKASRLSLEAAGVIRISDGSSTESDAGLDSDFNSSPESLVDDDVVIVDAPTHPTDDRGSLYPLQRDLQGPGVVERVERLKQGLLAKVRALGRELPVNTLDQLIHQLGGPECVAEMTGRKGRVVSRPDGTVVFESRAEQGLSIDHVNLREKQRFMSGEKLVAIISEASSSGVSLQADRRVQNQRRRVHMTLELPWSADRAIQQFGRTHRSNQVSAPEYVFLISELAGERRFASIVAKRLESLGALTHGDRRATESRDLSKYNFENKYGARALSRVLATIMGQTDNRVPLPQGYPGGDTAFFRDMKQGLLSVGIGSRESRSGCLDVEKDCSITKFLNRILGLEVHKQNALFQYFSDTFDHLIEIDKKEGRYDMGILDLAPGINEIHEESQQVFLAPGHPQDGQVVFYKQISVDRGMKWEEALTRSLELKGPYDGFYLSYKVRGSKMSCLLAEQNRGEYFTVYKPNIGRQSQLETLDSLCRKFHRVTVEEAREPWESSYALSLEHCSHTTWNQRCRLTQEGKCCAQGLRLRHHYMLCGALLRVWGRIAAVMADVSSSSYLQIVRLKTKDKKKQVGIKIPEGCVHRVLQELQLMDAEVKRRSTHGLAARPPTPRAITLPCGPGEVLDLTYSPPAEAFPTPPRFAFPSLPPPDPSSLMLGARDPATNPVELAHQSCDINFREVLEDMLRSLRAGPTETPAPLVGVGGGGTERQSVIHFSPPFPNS
UniProt Q80TA9: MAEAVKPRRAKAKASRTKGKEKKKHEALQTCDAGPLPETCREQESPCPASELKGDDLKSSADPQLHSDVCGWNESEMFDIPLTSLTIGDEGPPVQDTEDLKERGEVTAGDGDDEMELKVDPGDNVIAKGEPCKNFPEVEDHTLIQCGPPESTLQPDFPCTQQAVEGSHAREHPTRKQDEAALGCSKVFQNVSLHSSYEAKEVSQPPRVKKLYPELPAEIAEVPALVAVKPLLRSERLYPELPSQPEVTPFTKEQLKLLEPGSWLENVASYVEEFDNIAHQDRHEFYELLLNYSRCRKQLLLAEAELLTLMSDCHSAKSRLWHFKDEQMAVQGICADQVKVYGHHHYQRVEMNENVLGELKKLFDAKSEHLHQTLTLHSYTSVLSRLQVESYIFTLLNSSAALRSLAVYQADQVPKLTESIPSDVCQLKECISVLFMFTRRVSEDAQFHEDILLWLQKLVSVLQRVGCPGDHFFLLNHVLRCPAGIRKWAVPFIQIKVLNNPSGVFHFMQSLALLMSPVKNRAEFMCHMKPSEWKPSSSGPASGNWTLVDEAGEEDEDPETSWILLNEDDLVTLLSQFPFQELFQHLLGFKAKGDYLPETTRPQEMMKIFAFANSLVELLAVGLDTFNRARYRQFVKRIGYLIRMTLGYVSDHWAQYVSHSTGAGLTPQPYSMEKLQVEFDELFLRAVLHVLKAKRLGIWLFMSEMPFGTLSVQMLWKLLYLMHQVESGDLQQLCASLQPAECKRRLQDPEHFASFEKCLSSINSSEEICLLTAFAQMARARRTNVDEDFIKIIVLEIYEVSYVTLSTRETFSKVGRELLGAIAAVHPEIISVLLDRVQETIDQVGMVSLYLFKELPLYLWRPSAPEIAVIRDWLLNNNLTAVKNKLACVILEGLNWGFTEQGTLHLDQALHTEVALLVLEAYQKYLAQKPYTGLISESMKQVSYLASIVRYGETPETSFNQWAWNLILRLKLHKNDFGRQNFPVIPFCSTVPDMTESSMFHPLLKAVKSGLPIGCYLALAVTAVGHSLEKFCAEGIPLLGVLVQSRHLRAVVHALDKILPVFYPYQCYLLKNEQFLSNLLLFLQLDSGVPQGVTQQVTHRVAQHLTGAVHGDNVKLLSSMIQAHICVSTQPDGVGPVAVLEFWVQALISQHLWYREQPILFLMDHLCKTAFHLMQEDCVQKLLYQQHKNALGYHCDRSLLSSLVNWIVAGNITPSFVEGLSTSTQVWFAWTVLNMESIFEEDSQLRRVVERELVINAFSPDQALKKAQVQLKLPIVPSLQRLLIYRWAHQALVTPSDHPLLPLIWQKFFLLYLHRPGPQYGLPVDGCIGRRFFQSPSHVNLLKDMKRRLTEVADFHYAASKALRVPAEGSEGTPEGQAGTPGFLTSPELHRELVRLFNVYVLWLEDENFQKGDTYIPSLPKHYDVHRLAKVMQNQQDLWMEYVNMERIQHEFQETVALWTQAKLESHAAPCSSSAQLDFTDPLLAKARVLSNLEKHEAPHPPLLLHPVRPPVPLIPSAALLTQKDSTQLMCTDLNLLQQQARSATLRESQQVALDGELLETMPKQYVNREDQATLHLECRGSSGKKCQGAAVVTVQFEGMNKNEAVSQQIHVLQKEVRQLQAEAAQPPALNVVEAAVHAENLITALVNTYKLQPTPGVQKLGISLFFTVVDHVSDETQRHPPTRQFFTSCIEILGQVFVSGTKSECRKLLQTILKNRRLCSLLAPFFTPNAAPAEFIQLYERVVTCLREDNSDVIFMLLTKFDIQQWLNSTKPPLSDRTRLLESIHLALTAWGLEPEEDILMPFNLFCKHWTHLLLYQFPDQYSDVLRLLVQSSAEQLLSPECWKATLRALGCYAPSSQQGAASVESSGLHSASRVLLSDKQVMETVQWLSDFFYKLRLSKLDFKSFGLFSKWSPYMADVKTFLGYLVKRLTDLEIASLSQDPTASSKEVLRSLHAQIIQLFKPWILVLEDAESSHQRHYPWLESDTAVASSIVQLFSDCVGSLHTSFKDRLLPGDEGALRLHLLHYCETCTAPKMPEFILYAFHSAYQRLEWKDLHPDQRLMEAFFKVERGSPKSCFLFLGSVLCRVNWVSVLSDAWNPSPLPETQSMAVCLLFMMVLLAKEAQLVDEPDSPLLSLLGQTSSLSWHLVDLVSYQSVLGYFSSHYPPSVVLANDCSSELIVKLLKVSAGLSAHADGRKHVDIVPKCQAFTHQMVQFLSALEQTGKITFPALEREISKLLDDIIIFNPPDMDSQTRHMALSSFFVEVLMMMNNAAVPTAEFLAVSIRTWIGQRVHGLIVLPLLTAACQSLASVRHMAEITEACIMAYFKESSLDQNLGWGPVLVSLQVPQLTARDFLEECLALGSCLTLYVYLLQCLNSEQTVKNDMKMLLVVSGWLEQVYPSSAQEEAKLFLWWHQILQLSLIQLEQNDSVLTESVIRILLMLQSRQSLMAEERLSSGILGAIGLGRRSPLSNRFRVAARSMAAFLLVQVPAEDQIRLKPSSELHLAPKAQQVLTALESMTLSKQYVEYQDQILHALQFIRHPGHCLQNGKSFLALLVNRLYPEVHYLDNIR

Compound: CN[C@@H]1C[C@H]2O[C@@](C)([C@@H]1OC)n1c3ccccc3c3c4c(c5c6ccccc6n2c5c31)C(=O)NC4 [staurosporine]
Assay: log2 fold change of tryptic peptide abundance, ligand vs vehicle (limited proteolysis) (log2 ratio); higher = more trypsin-susceptible (destabilized)
Settings: ligand concentration: 20 uM; sample: mouse liver crude lysate; replicate design: treated separately

Target	log2 fold change
UniProt Q7TMF3 (peptide sequence: KIHEWVPPSTPYK, peptide start residue: 133)	-0.474
UniProt Q78JW9 (peptide sequence: GKPEDVMPSVK, peptide start residue: 256)	0.168
UniProt Q80U38 (peptide sequence: ESHFLQK, peptide start residue: 487)	-0.31
UniProt Q6ZQ03 (peptide sequence: KEVNEGIQALSNSEEER, peptide start residue: 306)	-0.411
UniProt Q7TPZ8 (peptide sequence: VRELEELEHLK, peptide start residue: 39)	0.472
UniProt Q7M6Z0 (peptide sequence: DLPAEDSR, peptide start residue: 350)	0.135
UniProt Q6ZQ93 (peptide sequence: TTLLELQK, peptide start residue: 1972)	0.357
UniProt Q80TN4 (peptide sequence: DYTGYVLALNGHKK, peptide start residue: 691)	0.358
UniProt Q7TNB8 (peptide sequence: VVSRPDGTVVFESR, peptide start residue: 751)	-0.463
UniProt Q80TA9 (peptide sequence: IQHEFQETVALWTQAK, peptide start residue: 1448)	-0.567
UniProt Q7TSI1 (peptide sequence: AALHGPFSQGPR, peptide start residue: 476)	0.387

Retrieved one by one from the list above, two records:
Target	log2 fold change
UniProt Q80TA9 (peptide sequence: IQHEFQETVALWTQAK, peptide start residue: 1448)	-0.567
UniProt Q80TN4 (peptide sequence: DYTGYVLALNGHKK, peptide start residue: 691)	0.358
